According to PubChem BioAssay AID248 (DTP/NCI, 2004):
The list is a part of this screen's results and no random one: it is rich in T/C values a quarter to a half above the control, in often repeated tests (any T/C) and in doses without a T/C. Other doses and runs of a compound stand elsewhere. T/C is the treated group as % of the vehicle group. Some doses have a count of surviving animals in place of a T/C: the source holds a T/C of zero for them, seemingly a mark for toxic or unscored doses. Some doses without a T/C left all or most animals alive at the check, yet need not have been tolerated: the source hardly ever lists a survival T/C far under the control, and the zero likely stands for such cases as well. Survivors were counted at the toxicity check, usually on the fifth day, unless a day is given; later deaths do not show. Schedules are NCI's codes, taken here to give the interval after Q, in days (D) or hours (H), and the number of doses after X. Some schedules carry Z or #; the key to these is not given. For survival time, the PubChem record calls one and a half times the control and up active, and a quarter to a half above the control has no call in these data; cut-offs in other NCI protocols can differ. Some entries hold several experiments; the results are listed from low to high. Some T/C values are followed by the survivors on the day toxicity was checked, most often the fifth; without a count, all were alive then.

System: L1210 leukemia ip in BDF1 mice, survival T/C
Assay: NCI In Vivo Anticancer Drug Screen. Data for tumor model L1210 Leukemia (intraperitoneal) in B6D2F1 (BDF1) mice
Conditions: T/C endpoint: mean survival time, higher T/C = longer survival
[1] = dose: 400.0 mg/kg/injection, schedule: Q01DX001 (ip), vehicle: other
[2] = dose: 400.0 mg/kg/injection, schedule: Q04DX003 (ip), vehicle: saline with Tween-80
[3] = dose: 400.0 mg/kg/injection, schedule: Q04DX003 (ip), vehicle: saline

N#C/C(=C/Cc1ccc(Cl)cc1)Nc1ccccc1C(N)=O
survivor count (dose: 100.0 mg/kg/injection, schedule: Q01DX001 (ip), vehicle: Klucel (hydroxypropylcellulose) (HPC)): 6 of 6
survivor count (dose: 200.0 mg/kg/injection, schedule: Q01DX001 (ip), vehicle: Klucel (hydroxypropylcellulose) (HPC)): 6 of 6
survivor count (dose: 400.0 mg/kg/injection, schedule: Q01DX001 (ip), vehicle: Klucel (hydroxypropylcellulose) (HPC)): 6 of 6

CCC(=O)OC1CCC2(C)C(=CCC3C2CCC2(C)C(C(C)CCCC(C)C)CCC32)C1 (stereo not given)
survivor count [1]: 3 of 3

CSc1ccc(NC(=O)Nc2nccs2)cc1
survivor count (dose: 100.0 mg/kg/injection, schedule: Q04DX003 (ip), vehicle: saline sonified): 6 of 6

CCCCCCCCCCCCCCCCCC[N+](CCCC)(CCCC)CCCCCCCCCCCCCCCCCC (tested in a mixture with another compound)
survivor count [1]: 6 of 6

CCCCCC1CCC(C(=O)O)CC1 (stereo not given)
survivor count [2]: 2 of 6

CNC(=O)Oc1ccc(NC(=O)OC)cc1
survivor count [2]: 6 of 6

O=C(O)c1ccc(C(=O)O)c(C(=O)O)c1.[NH-]C1CCCCC1[NH-].[Pt+2]
T/C (dose: 26.0 mg/kg/injection, schedule: Q01DX001 (ip), vehicle: saline): 126 % of control
T/C (dose: 52.0 mg/kg/injection, schedule: Q01DX001 (ip), vehicle: saline): 126 % of control
survivor count (dose: 60.0 mg/kg/injection, schedule: Q01DX001 (ip), vehicle: sodium bicarbonate): 1 of 6
survivor count (dose: 80.0 mg/kg/injection, schedule: Q01DX001 (ip), vehicle: sodium bicarbonate): 2 of 6

Nc1ccccc1SC(CC(=O)c1ccccc1)c1cccc([N+](=O)[O-])c1 (stereo not given)
survivor count (dose: 130.0 mg/kg/injection, schedule: Q01DX009 (ip), vehicle: Klucel (hydroxypropylcellulose) (HPC)): 3 of 3
survivor count (dose: 300.0 mg/kg/injection, schedule: Q01DX009 (ip), vehicle: Klucel (hydroxypropylcellulose) (HPC)): 3 of 3

CC(=O)OC1OC(COC(=O)c2ccccc2)C(OC(=O)c2ccccc2)C1OC(=O)c1ccccc1 (stereo not given)
survivor count (dose: 200.0 mg/kg/injection, schedule: Q01DX009 (ip), vehicle: Klucel (hydroxypropylcellulose) (HPC)): 6 of 6

CN1Cc2cc3cc(c2O)C[N+](C)(C)Cc2c(Cl)c(c(Cl)c(c2Cl)C[N+](C)(C)C3)C1
survivor count (dose: 50.0 mg/kg/injection, schedule: Q01DX009 (ip), vehicle: saline): 0 of 6
survivor count (dose: 100.0 mg/kg/injection, schedule: Q04DX003 (ip), vehicle: saline): 0 of 6
survivor count (dose: 200.0 mg/kg/injection, schedule: Q04DX003 (ip), vehicle: saline): 0 of 6
survivor count [3]: 0 of 6

C1CN2CCC1CC2
survivor count (dose: 20.0 mg/kg/injection, schedule: Q01DX001 (ip), vehicle: saline): 2 of 6
survivor count (dose: 40.0 mg/kg/injection, schedule: Q01DX001 (ip), vehicle: saline): 0 of 6
survivor count (dose: 80.0 mg/kg/injection, schedule: Q01DX001 (ip), vehicle: saline): 0 of 6
survivor count (dose: 100.0 mg/kg/injection, schedule: Q01DX001 (ip), vehicle: saline): 0 of 6
survivor count (dose: 200.0 mg/kg/injection, schedule: Q01DX001 (ip), vehicle: saline): 0 of 6
survivor count (dose: 200.0 mg/kg/injection, schedule: Q01DX009 (ip), vehicle: saline with Tween-80): 1 of 6
survivor count (dose: 400.0 mg/kg/injection, schedule: Q01DX001 (ip), vehicle: saline): 0 of 6
survivor count [2]: 0 of 6

NCC(=O)NC1(C(=O)O)CCCC1
T/C (dose: 54.0 mg/kg/injection, schedule: Q01DX Z (ip), vehicle: carboxymethylcellulose (CMC)): 126 % of control
T/C (dose: 60.0 mg/kg/injection, schedule: Q01DX Z (ip), vehicle: other): 126 % of control
T/C (dose: 80.0 mg/kg/injection, schedule: Q01DX Z (ip), vehicle: carboxymethylcellulose (CMC)): 129 % of control
T/C (dose: 80.0 mg/kg/injection, schedule: Q01DX Z (ip), vehicle: saline): 128 % of control
T/C (dose: 100.0 mg/kg/injection, schedule: Q01DX Z (ip), vehicle: saline): 134 % of control
T/C (dose: 120.0 mg/kg/injection, schedule: Q01DX015 (ip), vehicle: saline): 137 % of control
T/C (dose: 120.0 mg/kg/injection, schedule: Q01DX Z (ip), vehicle: other): 146 and 148 % of control
T/C (dose: 180.0 mg/kg/injection, schedule: Q01DX015 (ip), vehicle: saline): 137 % of control
T/C (dose: 180.0 mg/kg/injection, schedule: Q01DX Z (ip), vehicle: saline): 139 % of control [5 of 6 alive]
T/C (dose: 240.0 mg/kg/injection, schedule: Q01DX017 (ip), vehicle: saline): 132 % of control
T/C (dose: 240.0 mg/kg/injection, schedule: Q01DX Z (ip), vehicle: other): 125 % of control
T/C (dose: 264.0 mg/kg/injection, schedule: Q04DX003 (ip), vehicle: saline): 131 and 146 % of control
T/C [3]: 138 and 146 % of control
survivor count (dose: 960.0 mg/kg/injection, schedule: Q01DX Z (ip), vehicle: other): 2 of 6

c1ccc([Si](c2ccccc2)(c2ccccc2)c2ccc(-c3ccc([Si](c4ccccc4)(c4ccccc4)c4ccccc4)cc3)cc2)cc1
survivor count (dose: 100.0 mg/kg/injection, schedule: Q01DX001 (ip), vehicle: saline with Tween-80): 6 of 6

[O-][n+]1c2ccc(Cl)cc2nc2ccc(Cl)cc21
survivor count (dose: 200.0 mg/kg/injection, schedule: Q04DX003 (ip), vehicle: Klucel (hydroxypropylcellulose) (HPC)): 6 of 6
survivor count (dose: 400.0 mg/kg/injection, schedule: Q04DX003 (ip), vehicle: Klucel (hydroxypropylcellulose) (HPC)): 6 of 6

CC(C)CC(NS(=O)(=O)Cc1ccccc1)C(=O)NNc1ccccc1 (stereo not given)
survivor count (dose: 400.0 mg/kg/injection, schedule: Q04DX003 (ip), vehicle: other): 6 of 6
